Results: US4501733A, “Polypeptides, a process for their preparation, their use, and a _process for the purification of polypeptides” (Ferring Arzneimittel GmbH, priority 1982, dated 1985)
Part of at least one peptide drawing is inferred or uncertain, most often the ends. Square brackets hold non-standard residues; d marks the D form. Peptide text beside a SMILES is read from it.

System: ileum from guinea pigs
Test: Inhibition of SP- or Nle-SP-induced contraction of isolated guinea pig ileum (organ bath, isotonic measurement)
Text: The ileum from guinea pigs was cut out after the animals had been sacrificed, was substantially freed from mesenteria by pulling at the caudal end and was freed from digestion products with Tyrode's solution. About 25 cm were discarded from the caudal end, and several sections of intestine 4 cm long were then removed and stored in Tyrode's solution. The Tyrode's solution was gassed with carbogen (95% of O2 and 5% of CO2). The Tyrode's solution contained the following substances per liter: 8 g of NaCl; […]; 1.3 g of CaCl2.2H2 O; 2.1 g of MgCl2.6H2 O; […]; 0.58 g of NaH2 PO4.1H2 O; and 11 g of D(+)-glucose.
The Tyrode's solution was thermostatically controlled at 38° C. in an organ bath. Each preparation retained its complete contractility for 4 to 7 hours. 4 cm sections of intestine were tied on both sides and suspended in the organ bath. The contractions of the preparation were recorded under isotonic measurement conditions via a lever on a Kymograph drum. The writing was done by a felt-tip pen arranged as a lateral pen. The load arm was 225 mm and the power arm 20 mm long. The pre-load was about 0.3 g and the paper speed was 5 mm/minute. The organ bath contained 10 ml.
As a rule, the test substances were added in volumes of 2 to 100 μl, and were distributed instantaneously in the organ bath by the gassing. […]

## CSCC[C@H](NC(=O)[C@H](CC(C)C)NC(=O)[C@@H](Cc1c[nH]c2ccccc12)NC(=O)[C@H](Cc1ccccc1)NC(=O)[C@@H](Cc1c[nH]c2ccccc12)NC(=O)[C@H](CCC(N)=O)NC(=O)[C@H](CCC(N)=O)NC(=O)[C@@H]1CCCN1C(=O)[C@H](CCCCN)NC(=O)[C@H]1CCCN1C(=O)[C@@H](N)CCCNC(=N)N)C(N)=O [compound 1, D-Pro^2, D-Trp^7,9 -SP, reference compound] (H-R[dP]KPQQ[dW]F[dW]LM-NH2)
Agonist SP or Nle-SP 10^-8 M, antagonist 10^-5 M, guinea pig ileum contraction
  Percentage inhibiting action: 67.0 ± 3%
Antagonist used in a concentration of 10^-5 M, agonist SP or Nle-SP
  substance P-antagonizing action: substance P-antagonizing action
